Structures can show the parent of a compound that is named as a salt. The list shows a part of the results. Hit calls seldom repeat between salt and free forms of one compound.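 In K562 cells expressing nanoluciferase-fused kinases, luminescence was recorded at 4 h intervals between 2 and 18 h, normalized as percent of control with DMSO at 100% and a positive control at 0%. A significant (2 sigma) signal drop marks a time point as decreased. The authors' rule for a hit is not shown and takes in more than the number of time points.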
Assays:
Assay in all cases: number of time points (of 5) at which kinase-Nluc abundance scored as decreased, DMSO-normalised (count); higher = more persistent destabilization
Conditions in all cases: K562; 2-18 h
[1] = target: EGFR_L861Q (UniProt P00533)
[2] = target: EGFR_T790M (UniProt P00533)
[3] = target: EPHA2 (UniProt P29317)
[4] = target: ERBB3 (UniProt P21860)
[5] = target: ERBB4_R711C (clone: ERBB4_mut) (UniProt Q15303)
[6] = target: ERN1 (UniProt O75460)
[7] = target: FGFR1 (UniProt P11362)
[8] = target: FGFR2 (UniProt P21802)
[9] = target: FGFR3 (UniProt P22607)
[10] = target: FGR (UniProt P09769)
[11] = target: FLT3 (UniProt P36888)
[12] = target: FYN (UniProt P06241)
[13] = target: GSK3A (UniProt P49840)
[14] = target: HER2 (UniProt P04626)
[15] = target: INSRR (UniProt P14616)
[16] = target: IRAK3 (UniProt Q9Y616)
[17] = target: JAK1 (UniProt P23458)
[18] = target: LCK (UniProt P06239)
[19] = target: LIMK1 (UniProt P53667)
[20] = target: LIMK2 (UniProt P53671)

The chains behind the UniProt entries cited, without tags or fusion partners. Where a name states a change or a piece, a line headed by the entry shows the natural chain unless it says otherwise.
UniProt P29317, whole entry: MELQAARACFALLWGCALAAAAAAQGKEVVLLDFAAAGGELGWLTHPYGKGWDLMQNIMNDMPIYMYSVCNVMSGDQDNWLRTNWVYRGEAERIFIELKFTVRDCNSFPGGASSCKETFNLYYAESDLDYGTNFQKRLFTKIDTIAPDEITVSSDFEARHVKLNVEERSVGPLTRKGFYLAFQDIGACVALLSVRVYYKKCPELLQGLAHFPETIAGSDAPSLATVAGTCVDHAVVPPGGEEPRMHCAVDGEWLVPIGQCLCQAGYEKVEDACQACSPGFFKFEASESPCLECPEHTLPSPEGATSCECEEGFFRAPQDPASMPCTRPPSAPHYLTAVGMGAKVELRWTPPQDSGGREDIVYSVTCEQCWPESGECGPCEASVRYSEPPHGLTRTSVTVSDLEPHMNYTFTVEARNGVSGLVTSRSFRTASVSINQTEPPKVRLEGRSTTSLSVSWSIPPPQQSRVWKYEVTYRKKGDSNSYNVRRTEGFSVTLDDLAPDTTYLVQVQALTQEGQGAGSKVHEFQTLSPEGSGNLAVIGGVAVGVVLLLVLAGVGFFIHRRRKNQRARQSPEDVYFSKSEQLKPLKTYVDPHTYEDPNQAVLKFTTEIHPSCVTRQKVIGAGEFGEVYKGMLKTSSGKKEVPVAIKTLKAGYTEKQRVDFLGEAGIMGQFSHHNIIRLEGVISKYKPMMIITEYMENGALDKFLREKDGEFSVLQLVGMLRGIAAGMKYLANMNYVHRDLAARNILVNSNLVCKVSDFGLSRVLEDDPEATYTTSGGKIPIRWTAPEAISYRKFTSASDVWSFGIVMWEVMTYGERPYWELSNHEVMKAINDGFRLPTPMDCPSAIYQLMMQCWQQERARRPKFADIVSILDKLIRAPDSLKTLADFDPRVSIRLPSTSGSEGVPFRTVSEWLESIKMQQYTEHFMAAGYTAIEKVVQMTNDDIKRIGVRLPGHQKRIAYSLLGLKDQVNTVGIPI
UniProt P21802, whole entry, looked up: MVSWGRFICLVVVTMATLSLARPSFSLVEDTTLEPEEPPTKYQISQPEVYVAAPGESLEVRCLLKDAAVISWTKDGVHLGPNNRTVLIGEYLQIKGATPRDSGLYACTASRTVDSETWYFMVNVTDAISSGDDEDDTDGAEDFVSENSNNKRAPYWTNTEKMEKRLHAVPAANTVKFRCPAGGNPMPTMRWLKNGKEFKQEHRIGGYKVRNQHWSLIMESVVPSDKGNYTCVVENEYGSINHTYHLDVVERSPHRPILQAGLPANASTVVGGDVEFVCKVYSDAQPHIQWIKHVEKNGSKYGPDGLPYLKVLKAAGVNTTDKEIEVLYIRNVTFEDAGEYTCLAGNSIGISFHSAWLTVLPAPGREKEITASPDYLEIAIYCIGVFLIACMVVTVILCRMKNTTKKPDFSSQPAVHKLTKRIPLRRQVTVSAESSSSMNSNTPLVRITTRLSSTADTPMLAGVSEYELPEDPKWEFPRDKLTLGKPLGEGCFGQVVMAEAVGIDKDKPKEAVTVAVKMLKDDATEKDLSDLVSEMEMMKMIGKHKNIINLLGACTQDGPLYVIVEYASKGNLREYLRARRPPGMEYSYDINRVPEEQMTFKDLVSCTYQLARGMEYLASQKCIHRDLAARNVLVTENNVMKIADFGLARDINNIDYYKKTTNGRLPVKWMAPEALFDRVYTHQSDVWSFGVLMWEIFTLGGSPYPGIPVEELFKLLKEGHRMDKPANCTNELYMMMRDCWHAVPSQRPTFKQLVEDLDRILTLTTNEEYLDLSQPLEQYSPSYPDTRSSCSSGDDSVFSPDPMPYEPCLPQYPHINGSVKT
UniProt P22607, whole entry, looked up: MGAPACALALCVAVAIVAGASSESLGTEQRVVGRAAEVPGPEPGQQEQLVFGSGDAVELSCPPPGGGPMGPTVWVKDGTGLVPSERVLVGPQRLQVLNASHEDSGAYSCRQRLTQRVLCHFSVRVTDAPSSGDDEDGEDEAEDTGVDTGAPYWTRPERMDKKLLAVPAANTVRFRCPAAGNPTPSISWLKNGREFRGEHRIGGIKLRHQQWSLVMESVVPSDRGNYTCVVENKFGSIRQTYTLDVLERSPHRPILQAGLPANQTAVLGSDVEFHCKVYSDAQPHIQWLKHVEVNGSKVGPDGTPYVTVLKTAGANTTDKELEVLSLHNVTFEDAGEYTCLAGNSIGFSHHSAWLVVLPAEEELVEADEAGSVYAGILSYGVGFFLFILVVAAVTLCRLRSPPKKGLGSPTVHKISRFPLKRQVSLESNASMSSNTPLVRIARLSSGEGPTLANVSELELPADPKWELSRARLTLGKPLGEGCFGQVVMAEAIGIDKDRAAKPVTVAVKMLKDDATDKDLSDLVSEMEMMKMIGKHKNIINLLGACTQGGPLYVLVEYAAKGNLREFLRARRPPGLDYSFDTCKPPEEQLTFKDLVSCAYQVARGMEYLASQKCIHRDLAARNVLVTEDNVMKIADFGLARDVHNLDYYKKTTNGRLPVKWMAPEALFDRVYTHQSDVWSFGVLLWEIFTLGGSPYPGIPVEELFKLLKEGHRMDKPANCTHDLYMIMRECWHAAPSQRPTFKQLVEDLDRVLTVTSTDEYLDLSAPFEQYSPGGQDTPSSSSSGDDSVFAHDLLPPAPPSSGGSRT
UniProt P36888, whole entry: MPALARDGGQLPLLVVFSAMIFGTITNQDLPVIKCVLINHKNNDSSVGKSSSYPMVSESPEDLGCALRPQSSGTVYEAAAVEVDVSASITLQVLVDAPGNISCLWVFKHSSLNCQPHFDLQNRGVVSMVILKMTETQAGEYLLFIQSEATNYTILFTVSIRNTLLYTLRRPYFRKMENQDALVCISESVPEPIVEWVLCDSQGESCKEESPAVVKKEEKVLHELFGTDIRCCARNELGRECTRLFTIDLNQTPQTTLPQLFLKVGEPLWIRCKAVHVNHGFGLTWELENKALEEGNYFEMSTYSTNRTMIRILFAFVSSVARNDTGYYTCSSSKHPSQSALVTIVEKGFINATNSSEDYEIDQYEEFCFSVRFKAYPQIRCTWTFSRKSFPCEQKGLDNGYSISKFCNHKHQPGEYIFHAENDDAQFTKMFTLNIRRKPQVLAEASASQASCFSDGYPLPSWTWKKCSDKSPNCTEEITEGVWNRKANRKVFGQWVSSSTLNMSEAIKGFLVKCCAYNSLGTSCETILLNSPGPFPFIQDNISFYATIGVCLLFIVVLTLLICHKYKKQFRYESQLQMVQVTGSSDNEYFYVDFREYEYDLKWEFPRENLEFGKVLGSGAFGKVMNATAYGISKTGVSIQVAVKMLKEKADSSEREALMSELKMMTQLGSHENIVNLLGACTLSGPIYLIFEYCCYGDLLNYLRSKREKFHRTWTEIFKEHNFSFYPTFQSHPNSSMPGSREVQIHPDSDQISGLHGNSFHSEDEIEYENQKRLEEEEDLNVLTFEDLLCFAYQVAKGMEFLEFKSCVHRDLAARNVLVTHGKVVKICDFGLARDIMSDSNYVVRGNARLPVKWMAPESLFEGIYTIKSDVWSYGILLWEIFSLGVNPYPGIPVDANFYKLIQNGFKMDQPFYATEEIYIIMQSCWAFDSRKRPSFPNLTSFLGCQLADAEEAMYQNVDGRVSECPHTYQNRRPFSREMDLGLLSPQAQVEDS
UniProt P06241, whole entry, looked up: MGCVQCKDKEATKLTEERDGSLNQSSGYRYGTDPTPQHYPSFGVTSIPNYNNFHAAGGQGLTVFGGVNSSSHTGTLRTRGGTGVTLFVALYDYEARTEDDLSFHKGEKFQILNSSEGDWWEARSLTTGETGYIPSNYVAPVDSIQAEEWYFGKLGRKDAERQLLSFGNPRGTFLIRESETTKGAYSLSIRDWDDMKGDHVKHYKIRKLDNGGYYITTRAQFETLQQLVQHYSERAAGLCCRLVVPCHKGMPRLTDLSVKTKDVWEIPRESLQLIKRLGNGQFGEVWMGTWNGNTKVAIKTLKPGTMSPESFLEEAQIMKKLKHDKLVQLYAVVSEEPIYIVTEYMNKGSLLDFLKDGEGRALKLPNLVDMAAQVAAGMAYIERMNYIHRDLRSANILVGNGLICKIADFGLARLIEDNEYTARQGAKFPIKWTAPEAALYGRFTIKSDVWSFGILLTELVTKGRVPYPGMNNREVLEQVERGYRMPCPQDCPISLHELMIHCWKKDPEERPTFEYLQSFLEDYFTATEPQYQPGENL
UniProt P23458: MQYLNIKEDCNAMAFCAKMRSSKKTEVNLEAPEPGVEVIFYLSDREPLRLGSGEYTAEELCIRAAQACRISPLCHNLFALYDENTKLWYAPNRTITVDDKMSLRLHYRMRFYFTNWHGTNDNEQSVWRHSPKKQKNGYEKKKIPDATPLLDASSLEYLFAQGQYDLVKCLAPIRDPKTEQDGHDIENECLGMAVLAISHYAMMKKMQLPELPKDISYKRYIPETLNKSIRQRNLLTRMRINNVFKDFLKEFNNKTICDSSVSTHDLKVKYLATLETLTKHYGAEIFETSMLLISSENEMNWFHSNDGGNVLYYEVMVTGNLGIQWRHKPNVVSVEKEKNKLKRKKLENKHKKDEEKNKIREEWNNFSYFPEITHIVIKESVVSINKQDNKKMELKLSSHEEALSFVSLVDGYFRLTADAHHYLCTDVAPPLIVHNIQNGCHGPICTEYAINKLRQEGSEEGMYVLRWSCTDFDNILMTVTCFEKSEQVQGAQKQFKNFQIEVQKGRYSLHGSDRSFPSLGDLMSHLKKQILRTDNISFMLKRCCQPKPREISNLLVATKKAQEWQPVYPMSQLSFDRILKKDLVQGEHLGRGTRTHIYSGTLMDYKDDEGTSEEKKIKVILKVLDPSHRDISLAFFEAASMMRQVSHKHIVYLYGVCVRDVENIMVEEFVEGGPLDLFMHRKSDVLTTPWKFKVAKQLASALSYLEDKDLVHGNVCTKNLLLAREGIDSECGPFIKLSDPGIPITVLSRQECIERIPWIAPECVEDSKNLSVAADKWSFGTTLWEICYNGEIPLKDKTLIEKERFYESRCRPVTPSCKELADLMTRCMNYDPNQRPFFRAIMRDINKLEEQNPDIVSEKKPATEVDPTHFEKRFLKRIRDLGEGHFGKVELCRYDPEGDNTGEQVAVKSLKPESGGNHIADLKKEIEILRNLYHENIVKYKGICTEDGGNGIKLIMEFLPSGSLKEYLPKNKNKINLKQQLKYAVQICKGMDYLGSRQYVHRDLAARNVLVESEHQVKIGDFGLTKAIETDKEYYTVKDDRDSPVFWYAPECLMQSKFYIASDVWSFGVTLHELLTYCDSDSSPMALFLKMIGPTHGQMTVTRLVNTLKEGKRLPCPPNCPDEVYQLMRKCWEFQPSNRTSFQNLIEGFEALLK
UniProt P06239: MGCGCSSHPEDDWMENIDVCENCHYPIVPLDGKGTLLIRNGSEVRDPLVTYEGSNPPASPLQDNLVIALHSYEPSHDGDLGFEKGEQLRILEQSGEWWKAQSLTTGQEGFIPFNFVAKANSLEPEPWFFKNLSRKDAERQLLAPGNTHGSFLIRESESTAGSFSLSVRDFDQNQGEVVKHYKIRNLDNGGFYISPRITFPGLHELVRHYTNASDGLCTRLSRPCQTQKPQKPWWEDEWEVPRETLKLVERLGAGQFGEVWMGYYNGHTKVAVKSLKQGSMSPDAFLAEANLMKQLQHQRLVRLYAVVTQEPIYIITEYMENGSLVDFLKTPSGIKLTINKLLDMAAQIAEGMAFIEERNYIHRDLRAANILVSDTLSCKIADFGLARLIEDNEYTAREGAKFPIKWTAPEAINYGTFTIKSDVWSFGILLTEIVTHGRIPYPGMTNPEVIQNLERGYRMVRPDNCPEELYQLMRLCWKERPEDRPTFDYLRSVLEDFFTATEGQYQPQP
UniProt P53667: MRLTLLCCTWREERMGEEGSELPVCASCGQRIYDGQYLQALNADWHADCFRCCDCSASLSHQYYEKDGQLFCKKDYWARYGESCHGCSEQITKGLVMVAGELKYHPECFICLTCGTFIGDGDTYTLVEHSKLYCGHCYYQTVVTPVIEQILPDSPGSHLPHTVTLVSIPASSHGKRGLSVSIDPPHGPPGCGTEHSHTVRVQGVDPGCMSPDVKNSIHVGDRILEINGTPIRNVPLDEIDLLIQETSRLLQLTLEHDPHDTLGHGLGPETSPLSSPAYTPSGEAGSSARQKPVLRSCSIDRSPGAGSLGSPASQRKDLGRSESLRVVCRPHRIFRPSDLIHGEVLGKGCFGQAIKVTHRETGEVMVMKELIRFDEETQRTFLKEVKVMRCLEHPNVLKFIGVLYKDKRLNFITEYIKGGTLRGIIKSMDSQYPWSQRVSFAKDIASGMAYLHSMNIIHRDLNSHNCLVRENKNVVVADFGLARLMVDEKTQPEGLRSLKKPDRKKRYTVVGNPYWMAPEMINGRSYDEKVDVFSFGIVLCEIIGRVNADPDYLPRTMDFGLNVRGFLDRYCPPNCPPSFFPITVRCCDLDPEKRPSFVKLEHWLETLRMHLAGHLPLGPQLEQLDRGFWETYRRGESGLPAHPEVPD

Measured: number of time points

O=C(O)CCc1ccc(O)c(O)c1 [Dihydrocaffeic acid] (10 µM)
0: all assays above

C[C@@H]1C(=O)O[C@H](C)[C@H]1C[C@@H](O)[C@](C)(O)[C@H]1CC[C@@]2(O)C3=CC(=O)[C@@H]4C[C@@H](O)[C@@H](O)C[C@]4(C)[C@H]3CC[C@]12C [Cyasterone] (10 µM)
0: all assays above

COc1ccc(C2CC(c3ccccc3)=NN2c2ccc(S(N)(=O)=O)cc2)cc1 (stereo not given) (10 µM)
0: all assays above

O=C(CNC(=O)c1ccc(-c2ccccc2)cc1)NC1CCCc2ccccc21 (stereo not given) [TAO Kinase inhibitor 1] (10 µM)
0: all assays above

Cc1ccc(-c2c(C(=O)CF)n(CCCO)c3ncnc(N)c23)cc1 (10 µM)
0: all assays above

C[C@]1(O)CCC[C@@H]1n1c(=O)c(C(F)F)cc2cnc(NC3CCN(S(C)(=O)=O)CC3)nc21 (10 µM)
0: all assays above

COc1cc(C(N)=O)nc(-c2cccc(C#C[C@]3(O)CCN(C)C3=O)c2)c1 (10 µM)
0: all assays above

C[C@@]1(O)CCC[C@H]1n1c(=O)c(C(F)F)cc2cnc(NC3CCN(S(C)(=O)=O)CC3)nc21 (2.5 µM)
1: [11]
2: [8]
3: [4] | [5]
0: all other assays above

Cc1cc(O)c(C(C)C)cc1N=O [Poloxime] (10 µM)
2: [12]
0: all other assays above

Cc1c(CN2CCN(C(=O)[C@H](C)O)CC2)sc2c(N3CCOCC3)nc(-c3cnc(N)nc3)nc12 [Apitolisib] (10 µM)
2: [7] | [14]
1: [3] | [5] | [15]
0: all other assays above

Cc1ccc(-c2c(C(=O)CCl)n(CCCO)c3ncnc(N)c23)cc1 (10 µM)
3: [5] | [8] | [14] | [16] | [19]
4: [20]
5: [12]
2: [1] | [4] | [7]
0: all other assays above

CS(=O)(=O)c1ccc(-c2cnc(N)c(C(=O)Nc3ccccc3)n2)cc1 (10 µM)
0: all assays above

C=CC(=O)Nc1cccc(C)c1Nc1ncc2cc(-c3c(Cl)c(OC)cc(OC)c3Cl)ccc2n1 (2.5 µM)
2: [12]
0: all other assays above

Cc1ccc(S(=O)(=O)Nc2ccccc2C=Nc2ccccc2NS(=O)(=O)c2ccc(C)cc2)cc1 (10 µM)
0: all assays above

NCCN1CCN(C/C=C/C(=O)N2CCC[C@@H](n3nc(-c4ccc(Oc5ccccc5)cc4)c4c(N)ncnc43)C2)CC1 [Ibrutinib-MPEA] (10 µM)
0: all assays above

Nc1ncnc2c1ncn2[C@@H]1O[C@H](CO)C[C@H]1O [Cordycepin] (10 µM)
0: all assays above

Nc1ncnc2c1c(-c1ccc(Oc3ccccc3)cc1)nn2C1CCNCC1 [N-piperidine Ibrutinib (hydrochloride)] (10 µM)
3: [15]
1: [1]
2: [19]
0: all other assays above

COc1c(NC(=O)C(=O)c2ccc(OCCN3CCOCC3)c3ccccc23)cc(C(C)(C)C)cc1NS(C)(=O)=O (2.5 µM)
0: all assays above

Three structures already listed, ordered by formula weight, high to low:
Cc1c(CN2CCN(C(=O)[C@H](C)O)CC2)sc2c(N3CCOCC3)nc(-c3cnc(N)nc3)nc12 [Apitolisib] (10 µM)
2: [7] | [14]
1: [3] | [5] | [15]
0: all other assays above

C[C@@]1(O)CCC[C@H]1n1c(=O)c(C(F)F)cc2cnc(NC3CCN(S(C)(=O)=O)CC3)nc21 (2.5 µM)
1: [11]
2: [8]
3: [4] | [5]
0: all other assays above

Cc1ccc(-c2c(C(=O)CCl)n(CCCO)c3ncnc(N)c23)cc1 (10 µM)
3: [5] | [8] | [14] | [16] | [19]
4: [20]
5: [12]
2: [1] | [4] | [7]
0: all other assays above

More records

O=C(Nc1ccc2[nH]nc(-c3ccncc3)c2c1)[C@@H]1CCN(CC(=O)N2CCN(c3ccc(-c4ncccn4)cc3)CC2)C1 (2.5 µM)
0: all assays above

CN1CCN(c2ccc(Nc3ncc4nc(Nc5ccccc5)n([C@@H]5CCN(S(=O)(=O)C6CC6)C5)c4n3)cc2)CC1 (2.5 µM)
2: [8] | [17]
0: all other assays above

O=C(/C=C/c1ccc(O)c(O)c1)OC1CC(OC(=O)/C=C/c2ccc(O)c(O)c2)(C(=O)O)CC(O)C1O (stereo not given) [1,3-Dicaffeoylquinic acid] (10 µM)
0: all assays above

CC(C)(C)NC(=O)c1cncn1C1CCN(c2ccc(-c3nnc(C(F)(F)F)o3)cn2)CC1 (10 µM)
1: [11]
0: all other assays above

O=C(NCCCNC(=O)Nc1cccc(C2=NCCN2)c1)Nc1cccc(C2=NCCN2)c1 [p32 Inhibitor M36] (10 µM)
0: all assays above

CC1CCc2nc(N)c(C#N)c(-c3cccnc3)c2C1 (stereo not given) (10 µM)
0: all assays above

CN(CCNc1ccc2ncc(-c3ccc(C(N)=O)cc3)n2n1)C(=O)OC(C)(C)C (10 µM)
0: all assays above

O=C(Nc1cc(Oc2cc(F)c(NC(=O)C3(C(=O)Nc4ccc(F)cc4)CC3)cc2F)ccn1)C1CC1 [Altiratinib] (10 µM)
0: all assays above

CC(C)NC(=O)N1CC[C@H](NC2=Nc3cc(F)ccc3N(CC(F)F)c3ccc(Cl)cc32)C1 (10 µM)
0: all assays above

COc1ccc(Cn2cc(C(=O)N=Nc3c(O)[nH]c4c(C)cccc34)nn2)cc1 [MARK4 inhibitor 1] (10 µM)
0: all assays above

CC1=C2C(=O)O[C@@H](c3ccoc3)[C@]2(C)CCC1 [Fraxinellone] (10 µM)
0: all assays above

OCCNC1CCCc2c1[nH]c1ccc(-c3ccccc3)cc21 (stereo not given) (2.5 µM)
2: [1] | [14]
5: [20]
3: [19]
1: [8] | [10] | [12] | [15]
0: all other assays above

CC(=O)c1c(C)c2cnc(Nc3ccc(N4CCN(CCCCNC(=O)COc5cccc6c5C(=O)N(C5CCC(=O)NC5=O)C6=O)CC4)cn3)nc2n(C2CCCC2)c1=O (stereo not given) (10 µM)
0: all assays above

Nc1cc(Nc2ccc(S(N)(=O)=O)cc2)ncn1 (10 µM)
1: [15]
0: all other assays above

N#CC(c1ccnc(NCCc2cccnc2)n1)c1nc2ccccc2s1 (stereo not given) (10 µM)
0: all assays above

From the supplement of paper PMC12823440, “Inhibitors supercharge kinase turnover through native proteolytic circuits” (Nature, 2025)
